Laboratory results as given in patent US5386011A, “Hexapeptide anaphylatoxin-receptor ligands” (priority 1990, dated 1995).
For at least one compound, name, drawing or mass did not settle the structure. Where a SMILES comes first, the peptide text is derived from it. [ ]: non-standard residue; d: D form. Cha = N[C@@H](CC1CCCCC1)C(=O)O

Molecular target: T1, C5a Receptor (Homo sapiens, UniProt P21730)
T1 construct: 2.5-25 ug/mL of purified PMNL membrane fragments; endogenous in cells; host or cells: PMNL (polymorphonuclear leukocytes), purified membrane fragments
T1 sequence (P21730 1-350): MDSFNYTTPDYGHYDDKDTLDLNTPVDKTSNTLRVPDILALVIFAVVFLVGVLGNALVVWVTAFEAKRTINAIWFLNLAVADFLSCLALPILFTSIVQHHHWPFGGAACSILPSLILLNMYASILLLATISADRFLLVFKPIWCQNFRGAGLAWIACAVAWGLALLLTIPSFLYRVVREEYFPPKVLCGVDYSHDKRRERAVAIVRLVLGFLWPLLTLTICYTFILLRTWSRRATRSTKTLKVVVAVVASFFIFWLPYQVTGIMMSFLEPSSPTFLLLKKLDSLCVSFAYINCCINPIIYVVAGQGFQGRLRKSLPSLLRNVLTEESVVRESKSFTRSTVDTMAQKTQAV
Experiment: Anaphylatoxin receptor binding Ki determination: inhibition of 125I-C5a binding to purified PMNL membrane fragments
Details: 0.03-1 nM 125I-C5a, 2.5-25 ug/mL purified PMNL membrane fragments, filtration; read-out: Ki (In vitro C5a Receptor Binding Potency)
Experimental: Specific inhibition of C5a binding activity of representative compounds of the present invention was measured using 0.03-1 nM ^125 I-C5a with 2.5-25 ug/mL of purified PMNL membrane fragments (Borregaard, N.; Heiple, J. M.; Simons, E. R.; and Clark, R. A. J. Cell. Biol. 1983, 97, 52-61.). Free and membrane-bound ligand were separated by filtration.

Structure (SMILES): CC(C)C[C@H](NC(=O)[C@H](CC1CCCCC1)NC(=O)[C@H](C)NC(=O)[C@H](CCCCN)NC(=O)[C@@H](N)Cc1ccccc1)C(=O)N[C@H](Cc1ccccc1)C(=O)N[C@@H](CCCNC(=N)N)C(=O)O [Example 125, H-Phenylalanyl-Lysyl-Alanyl-{(2S)-2-Amino-3-cyclohexylpropanoyl}-Leucyl-DPhenylalanyl-Arginyl-OH] (H-FKA[Cha]L[dF]R-OH)
- Ki: 0.026 µM
